Test results published in article PMC2391170.
These are yes or no findings as the source states them, for the method shown. Some binding calls cover weakened binding; strength is not graded here.

T1: AtPAPS4 (Arabidopsis) (UniProt Q8VYW1)
T1 sequence: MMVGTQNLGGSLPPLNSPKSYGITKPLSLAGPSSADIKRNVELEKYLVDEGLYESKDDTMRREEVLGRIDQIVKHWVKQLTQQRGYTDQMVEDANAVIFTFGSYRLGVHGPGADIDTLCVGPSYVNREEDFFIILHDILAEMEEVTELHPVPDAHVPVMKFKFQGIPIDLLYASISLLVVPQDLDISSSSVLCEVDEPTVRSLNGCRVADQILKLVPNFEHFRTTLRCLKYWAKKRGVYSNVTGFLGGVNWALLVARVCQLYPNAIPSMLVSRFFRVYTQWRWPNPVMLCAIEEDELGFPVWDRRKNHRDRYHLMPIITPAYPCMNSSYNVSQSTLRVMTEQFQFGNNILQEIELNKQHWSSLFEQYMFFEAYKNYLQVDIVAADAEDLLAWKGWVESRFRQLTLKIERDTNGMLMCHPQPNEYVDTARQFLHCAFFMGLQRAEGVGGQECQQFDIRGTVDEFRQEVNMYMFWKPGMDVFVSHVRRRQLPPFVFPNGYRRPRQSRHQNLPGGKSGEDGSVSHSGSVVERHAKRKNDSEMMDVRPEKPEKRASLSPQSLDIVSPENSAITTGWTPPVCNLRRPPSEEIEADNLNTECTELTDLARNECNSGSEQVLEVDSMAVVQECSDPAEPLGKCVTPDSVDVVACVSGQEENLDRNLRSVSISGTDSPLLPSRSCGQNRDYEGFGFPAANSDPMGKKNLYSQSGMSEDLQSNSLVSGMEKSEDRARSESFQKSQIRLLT

T2: AtCLPS3 (Arabidopsis) (UniProt Q9SR06)
T2 sequence: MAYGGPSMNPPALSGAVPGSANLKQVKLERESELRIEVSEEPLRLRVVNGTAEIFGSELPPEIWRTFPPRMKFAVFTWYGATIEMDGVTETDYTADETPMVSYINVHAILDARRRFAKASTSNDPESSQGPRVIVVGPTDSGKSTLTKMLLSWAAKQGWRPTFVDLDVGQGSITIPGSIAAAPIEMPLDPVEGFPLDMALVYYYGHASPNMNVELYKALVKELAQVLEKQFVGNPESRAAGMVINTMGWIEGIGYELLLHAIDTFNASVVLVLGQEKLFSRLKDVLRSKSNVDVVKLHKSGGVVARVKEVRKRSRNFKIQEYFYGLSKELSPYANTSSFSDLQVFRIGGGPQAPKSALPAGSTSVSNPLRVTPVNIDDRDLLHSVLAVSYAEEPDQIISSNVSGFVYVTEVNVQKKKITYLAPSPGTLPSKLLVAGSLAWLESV

T3: AtPCFS4 (Arabidopsis) (UniProt Q0WPF2)
T3 sequence: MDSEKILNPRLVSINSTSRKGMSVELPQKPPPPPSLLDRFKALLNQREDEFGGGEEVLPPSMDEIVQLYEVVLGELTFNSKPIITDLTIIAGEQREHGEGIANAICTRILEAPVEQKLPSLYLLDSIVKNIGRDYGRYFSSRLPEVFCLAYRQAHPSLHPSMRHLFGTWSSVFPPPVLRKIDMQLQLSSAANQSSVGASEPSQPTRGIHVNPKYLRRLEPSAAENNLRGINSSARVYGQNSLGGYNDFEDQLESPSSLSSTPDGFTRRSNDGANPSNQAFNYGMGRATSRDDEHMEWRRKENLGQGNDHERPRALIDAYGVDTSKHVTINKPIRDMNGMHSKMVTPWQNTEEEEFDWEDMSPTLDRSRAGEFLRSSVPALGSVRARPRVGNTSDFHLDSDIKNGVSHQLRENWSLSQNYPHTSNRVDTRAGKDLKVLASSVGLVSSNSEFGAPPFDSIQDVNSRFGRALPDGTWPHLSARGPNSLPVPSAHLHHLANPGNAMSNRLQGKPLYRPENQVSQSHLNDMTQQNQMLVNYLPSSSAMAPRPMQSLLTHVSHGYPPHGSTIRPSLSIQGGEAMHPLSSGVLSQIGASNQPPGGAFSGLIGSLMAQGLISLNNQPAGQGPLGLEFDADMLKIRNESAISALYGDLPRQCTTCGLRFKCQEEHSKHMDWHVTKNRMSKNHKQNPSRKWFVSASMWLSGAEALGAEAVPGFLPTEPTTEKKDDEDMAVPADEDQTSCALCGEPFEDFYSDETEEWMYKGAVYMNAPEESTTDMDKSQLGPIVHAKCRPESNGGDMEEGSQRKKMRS


Columns and labels:
Assay in all cases: two-hybrid; AD (pGAD-C(1)) and BD (pGBD-C(1)) fusions in yeast PJ69-4; dual transformants tested on media lacking leucine, tryptophan and adenine; positive if all tested colonies (4 to 10) grew; both combinations of clones tested whenever possible
AtPAPS4 (Arabidopsis) = target: T1, AtPAPS4 (Arabidopsis)
AtCLPS3 (Arabidopsis) = target: T2, AtCLPS3 (Arabidopsis)
AtPCFS4 (Arabidopsis) = target: T3, AtPCFS4 (Arabidopsis)

binding (AtPAPS4 (Arabidopsis)) | binding (AtCLPS3 (Arabidopsis)) | binding (AtPCFS4 (Arabidopsis)) | Binder
binds | no binding | no binding | AtCFIS2 (protein, UniProt Q8GXS3 1-200) MAMSQVVNTYPLSNYSFGTKEPKLEKDTSVADRLARMKINYMKEGMRTSVEGILLVQEHNHPHILLLQIGNTFCKLPGGRLKPGENEADGLKRKLTSKLGGNSAALVPDWTVGECVATWWRPNFETMMYPYCPPHITKPKECKRLYIVHLSEKEYFAVPKNLKLLAVPLFELYDNVQRYGPVISTIPQQLSRFHFNMISS
no binding | no binding | no binding | AtCFIS1 (protein, UniProt Q94AF0 1-222) MGEEARALDMEEISDNTTRRNDVVHDLMVDLYPLSSYYFGSKEALRVKDEIISDRVIRLKSNYAAHGLRTCVEAVLLVELFKHPHVLLLQYRNSIFKLPGGRLRPGESDIEGLKRKLASKLSVNENVGVSGYEVGECIGMWWRPNFETLMYPFLPPNIKHPKECTKLFLVRLPVHQQFVVPKNFKLLAVPLCQLHENEKTYGPIMSQIPKLLSKFSFNMMEI
